The other results are listed elsewhere or left out. Residues, ends and D or L forms follow the SMILES beside them. *: point of attachment. Cbz = O=C(OCc1ccccc1)*
Tests used:
Test in all cases: log2 fold change, soluble protein after heating vs DMSO (PISA); higher = thermal stabilisation; K562 cells, 10 uM, 30 min; active = over 0.2 and 3.5 SD of the protein, either way, in both replicates (recomputed)
[1] = compound: C#Cc1cccc(Nc2ncnc3cc(OCCOC)c(OCCOC)cc23)c1 [erlotinib]
Procedure, shortened: (§1)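 Aliquots of K562 cells (2×10^6 cells/mL) treated with 10 μM compound for 30 min were heated for 3 min over 48°C-58°C. After pooling and extraction in PBS with 0.5% NP-40 at 4°C, soluble protein from a 21,000xg, 90 min spin was quantified by TMTpro 16plex LC-MS/MS with channel sums equalised. Thermal stability is expressed against control samples, from duplicates, as a log2 fold change.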

Amino acid sequences for entries named in this document (tags omitted). A change or cut given only in a name is not applied to a line headed by its entry.
UniProt Q15459: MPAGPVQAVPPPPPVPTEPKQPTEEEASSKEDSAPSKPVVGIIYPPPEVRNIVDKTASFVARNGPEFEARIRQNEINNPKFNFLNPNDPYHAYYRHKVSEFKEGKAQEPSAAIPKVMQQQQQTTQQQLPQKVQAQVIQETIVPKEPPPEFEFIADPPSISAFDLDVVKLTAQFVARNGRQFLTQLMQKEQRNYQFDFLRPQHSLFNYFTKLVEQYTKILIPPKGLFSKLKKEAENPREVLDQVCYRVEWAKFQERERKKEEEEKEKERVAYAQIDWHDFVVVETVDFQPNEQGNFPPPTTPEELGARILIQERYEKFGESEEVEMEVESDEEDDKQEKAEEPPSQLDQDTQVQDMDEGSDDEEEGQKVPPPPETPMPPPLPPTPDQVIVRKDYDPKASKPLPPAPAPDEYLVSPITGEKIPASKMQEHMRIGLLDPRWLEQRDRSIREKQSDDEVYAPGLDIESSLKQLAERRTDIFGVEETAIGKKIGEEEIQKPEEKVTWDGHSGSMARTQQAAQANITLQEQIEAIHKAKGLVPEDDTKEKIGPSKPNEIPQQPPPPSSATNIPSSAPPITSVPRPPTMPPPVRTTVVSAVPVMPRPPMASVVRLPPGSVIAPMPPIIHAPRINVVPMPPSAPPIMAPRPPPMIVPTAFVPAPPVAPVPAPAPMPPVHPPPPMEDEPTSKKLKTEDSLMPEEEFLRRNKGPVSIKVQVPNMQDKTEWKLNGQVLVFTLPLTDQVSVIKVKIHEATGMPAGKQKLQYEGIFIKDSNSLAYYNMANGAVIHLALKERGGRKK
UniProt Q15428: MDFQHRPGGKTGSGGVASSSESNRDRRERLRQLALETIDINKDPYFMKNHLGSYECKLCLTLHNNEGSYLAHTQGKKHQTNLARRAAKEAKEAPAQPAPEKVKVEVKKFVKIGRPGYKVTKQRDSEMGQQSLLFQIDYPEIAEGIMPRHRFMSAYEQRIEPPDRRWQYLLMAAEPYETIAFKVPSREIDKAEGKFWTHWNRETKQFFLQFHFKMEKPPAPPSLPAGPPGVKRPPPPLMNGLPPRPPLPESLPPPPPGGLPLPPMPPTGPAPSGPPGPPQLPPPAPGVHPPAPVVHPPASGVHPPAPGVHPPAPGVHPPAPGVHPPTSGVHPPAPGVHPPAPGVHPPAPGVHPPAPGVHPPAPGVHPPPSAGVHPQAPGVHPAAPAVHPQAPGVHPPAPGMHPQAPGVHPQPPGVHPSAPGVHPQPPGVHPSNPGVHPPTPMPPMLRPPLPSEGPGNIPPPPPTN
UniProt P08697: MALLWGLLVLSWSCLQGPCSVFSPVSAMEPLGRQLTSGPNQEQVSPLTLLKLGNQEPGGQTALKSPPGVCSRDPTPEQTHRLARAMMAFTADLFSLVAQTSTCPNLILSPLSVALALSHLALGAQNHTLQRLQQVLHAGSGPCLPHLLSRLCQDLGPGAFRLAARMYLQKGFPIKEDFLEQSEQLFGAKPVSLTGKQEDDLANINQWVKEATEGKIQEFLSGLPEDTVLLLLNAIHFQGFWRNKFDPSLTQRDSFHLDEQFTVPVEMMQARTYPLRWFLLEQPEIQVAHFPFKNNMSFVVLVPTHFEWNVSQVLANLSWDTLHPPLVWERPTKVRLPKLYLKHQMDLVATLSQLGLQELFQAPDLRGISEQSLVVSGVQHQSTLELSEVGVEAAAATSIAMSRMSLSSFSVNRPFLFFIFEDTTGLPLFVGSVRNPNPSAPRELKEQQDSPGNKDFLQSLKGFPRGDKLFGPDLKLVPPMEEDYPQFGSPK
UniProt Q9NPR2: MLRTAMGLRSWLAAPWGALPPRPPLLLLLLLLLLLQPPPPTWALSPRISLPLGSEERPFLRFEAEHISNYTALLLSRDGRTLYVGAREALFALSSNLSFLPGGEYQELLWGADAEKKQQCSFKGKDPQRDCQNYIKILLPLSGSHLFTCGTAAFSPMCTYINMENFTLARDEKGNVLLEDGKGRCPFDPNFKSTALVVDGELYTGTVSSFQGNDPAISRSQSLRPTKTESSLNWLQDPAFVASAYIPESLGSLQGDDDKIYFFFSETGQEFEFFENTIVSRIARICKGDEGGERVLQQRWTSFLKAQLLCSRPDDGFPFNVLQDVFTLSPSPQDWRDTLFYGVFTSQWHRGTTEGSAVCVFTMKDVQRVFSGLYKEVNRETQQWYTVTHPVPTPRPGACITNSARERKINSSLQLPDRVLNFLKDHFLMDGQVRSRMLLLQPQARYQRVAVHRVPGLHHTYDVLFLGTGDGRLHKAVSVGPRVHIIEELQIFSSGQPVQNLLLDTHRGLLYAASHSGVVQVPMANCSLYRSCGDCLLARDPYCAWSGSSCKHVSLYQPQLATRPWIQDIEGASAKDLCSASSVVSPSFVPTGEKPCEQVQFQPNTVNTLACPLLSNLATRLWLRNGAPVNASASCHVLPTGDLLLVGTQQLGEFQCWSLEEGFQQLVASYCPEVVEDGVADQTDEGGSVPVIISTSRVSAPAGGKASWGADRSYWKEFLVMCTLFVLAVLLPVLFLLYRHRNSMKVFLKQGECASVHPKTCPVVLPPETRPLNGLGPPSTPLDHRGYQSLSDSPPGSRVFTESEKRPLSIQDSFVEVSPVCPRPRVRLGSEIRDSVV
UniProt Q15637: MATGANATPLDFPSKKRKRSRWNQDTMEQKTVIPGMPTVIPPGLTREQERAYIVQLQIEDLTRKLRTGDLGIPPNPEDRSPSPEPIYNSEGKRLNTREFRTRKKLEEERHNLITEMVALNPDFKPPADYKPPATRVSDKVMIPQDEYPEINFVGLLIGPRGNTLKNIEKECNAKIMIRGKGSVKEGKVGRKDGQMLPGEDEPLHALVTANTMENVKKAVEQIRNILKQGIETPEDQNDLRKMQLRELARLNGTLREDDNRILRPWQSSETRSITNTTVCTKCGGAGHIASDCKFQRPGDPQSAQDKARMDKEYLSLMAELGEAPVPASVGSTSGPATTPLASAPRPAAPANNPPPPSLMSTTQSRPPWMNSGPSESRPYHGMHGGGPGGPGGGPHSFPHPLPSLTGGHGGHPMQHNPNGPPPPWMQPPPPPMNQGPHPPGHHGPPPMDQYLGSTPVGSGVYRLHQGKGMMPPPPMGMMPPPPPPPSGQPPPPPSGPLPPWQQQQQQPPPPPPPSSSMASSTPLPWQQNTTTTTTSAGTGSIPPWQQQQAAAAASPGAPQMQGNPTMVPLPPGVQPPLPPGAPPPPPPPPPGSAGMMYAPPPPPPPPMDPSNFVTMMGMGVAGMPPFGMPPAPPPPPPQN
UniProt Q96FS4: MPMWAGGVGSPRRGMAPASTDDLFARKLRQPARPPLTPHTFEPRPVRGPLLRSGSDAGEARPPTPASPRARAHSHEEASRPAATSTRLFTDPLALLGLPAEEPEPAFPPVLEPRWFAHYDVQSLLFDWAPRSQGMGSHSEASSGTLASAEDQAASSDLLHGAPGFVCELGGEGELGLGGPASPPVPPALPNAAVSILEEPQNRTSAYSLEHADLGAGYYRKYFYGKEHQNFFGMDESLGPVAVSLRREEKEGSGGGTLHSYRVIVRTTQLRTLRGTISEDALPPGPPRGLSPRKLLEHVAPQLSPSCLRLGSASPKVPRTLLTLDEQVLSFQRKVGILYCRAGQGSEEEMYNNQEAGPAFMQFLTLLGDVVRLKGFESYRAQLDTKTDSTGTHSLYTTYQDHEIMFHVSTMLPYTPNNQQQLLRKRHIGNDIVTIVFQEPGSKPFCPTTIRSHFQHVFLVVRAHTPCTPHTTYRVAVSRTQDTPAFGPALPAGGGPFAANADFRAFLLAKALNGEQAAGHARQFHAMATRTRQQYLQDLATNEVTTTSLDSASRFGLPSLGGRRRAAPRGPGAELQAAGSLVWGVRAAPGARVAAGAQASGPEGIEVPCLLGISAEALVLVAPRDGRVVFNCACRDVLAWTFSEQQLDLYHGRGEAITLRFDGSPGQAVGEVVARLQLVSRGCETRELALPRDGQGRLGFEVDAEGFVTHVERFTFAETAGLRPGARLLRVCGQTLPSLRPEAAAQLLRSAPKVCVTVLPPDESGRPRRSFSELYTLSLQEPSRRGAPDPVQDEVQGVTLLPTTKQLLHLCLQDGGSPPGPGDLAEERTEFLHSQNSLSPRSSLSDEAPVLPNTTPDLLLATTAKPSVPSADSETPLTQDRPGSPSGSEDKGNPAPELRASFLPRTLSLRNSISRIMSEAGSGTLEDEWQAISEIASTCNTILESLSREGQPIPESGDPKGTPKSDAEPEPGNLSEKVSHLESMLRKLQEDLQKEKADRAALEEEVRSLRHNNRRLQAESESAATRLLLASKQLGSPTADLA
UniProt Q8TBC3: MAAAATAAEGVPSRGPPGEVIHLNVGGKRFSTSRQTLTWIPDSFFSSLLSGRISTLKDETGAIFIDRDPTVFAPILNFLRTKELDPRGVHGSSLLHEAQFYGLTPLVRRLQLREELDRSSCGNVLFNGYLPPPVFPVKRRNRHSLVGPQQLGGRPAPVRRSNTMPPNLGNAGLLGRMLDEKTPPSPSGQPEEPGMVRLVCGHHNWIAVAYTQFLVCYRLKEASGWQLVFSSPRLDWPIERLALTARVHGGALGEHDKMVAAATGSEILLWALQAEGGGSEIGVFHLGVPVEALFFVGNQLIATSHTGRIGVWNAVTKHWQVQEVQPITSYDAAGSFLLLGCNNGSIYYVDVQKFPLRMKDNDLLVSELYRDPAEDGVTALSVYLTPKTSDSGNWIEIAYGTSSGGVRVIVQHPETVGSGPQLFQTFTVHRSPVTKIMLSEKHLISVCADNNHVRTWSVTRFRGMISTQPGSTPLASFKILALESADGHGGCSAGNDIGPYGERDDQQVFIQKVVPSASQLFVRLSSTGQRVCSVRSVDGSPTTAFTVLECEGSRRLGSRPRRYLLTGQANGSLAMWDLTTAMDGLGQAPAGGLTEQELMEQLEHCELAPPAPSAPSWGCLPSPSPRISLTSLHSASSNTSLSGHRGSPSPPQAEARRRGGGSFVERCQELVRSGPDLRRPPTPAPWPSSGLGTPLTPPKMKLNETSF
UniProt Q86VZ5: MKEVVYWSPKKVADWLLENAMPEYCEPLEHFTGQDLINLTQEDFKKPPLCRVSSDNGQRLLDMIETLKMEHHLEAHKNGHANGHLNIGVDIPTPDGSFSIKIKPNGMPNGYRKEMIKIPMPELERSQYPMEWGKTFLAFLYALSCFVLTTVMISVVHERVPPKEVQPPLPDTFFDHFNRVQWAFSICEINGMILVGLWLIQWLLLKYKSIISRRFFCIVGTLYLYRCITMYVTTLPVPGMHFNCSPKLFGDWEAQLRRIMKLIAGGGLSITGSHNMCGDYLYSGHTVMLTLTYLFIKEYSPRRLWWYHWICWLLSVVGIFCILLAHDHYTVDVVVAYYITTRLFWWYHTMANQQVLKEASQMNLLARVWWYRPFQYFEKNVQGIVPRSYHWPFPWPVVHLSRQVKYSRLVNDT
UniProt Q12874: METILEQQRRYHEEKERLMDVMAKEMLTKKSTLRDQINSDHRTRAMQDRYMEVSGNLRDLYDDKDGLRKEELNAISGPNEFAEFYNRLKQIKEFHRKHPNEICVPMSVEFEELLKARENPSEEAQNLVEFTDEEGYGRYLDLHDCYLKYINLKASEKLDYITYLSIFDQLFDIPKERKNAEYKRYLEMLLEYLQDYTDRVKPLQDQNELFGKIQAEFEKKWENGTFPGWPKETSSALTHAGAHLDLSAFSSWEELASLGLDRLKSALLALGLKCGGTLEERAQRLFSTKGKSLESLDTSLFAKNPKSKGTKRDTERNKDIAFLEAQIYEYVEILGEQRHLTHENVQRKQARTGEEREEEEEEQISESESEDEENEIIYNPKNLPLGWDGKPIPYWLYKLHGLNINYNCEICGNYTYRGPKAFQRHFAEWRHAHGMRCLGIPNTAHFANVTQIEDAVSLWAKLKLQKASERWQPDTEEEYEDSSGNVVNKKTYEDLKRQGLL
UniProt Q9HAT2: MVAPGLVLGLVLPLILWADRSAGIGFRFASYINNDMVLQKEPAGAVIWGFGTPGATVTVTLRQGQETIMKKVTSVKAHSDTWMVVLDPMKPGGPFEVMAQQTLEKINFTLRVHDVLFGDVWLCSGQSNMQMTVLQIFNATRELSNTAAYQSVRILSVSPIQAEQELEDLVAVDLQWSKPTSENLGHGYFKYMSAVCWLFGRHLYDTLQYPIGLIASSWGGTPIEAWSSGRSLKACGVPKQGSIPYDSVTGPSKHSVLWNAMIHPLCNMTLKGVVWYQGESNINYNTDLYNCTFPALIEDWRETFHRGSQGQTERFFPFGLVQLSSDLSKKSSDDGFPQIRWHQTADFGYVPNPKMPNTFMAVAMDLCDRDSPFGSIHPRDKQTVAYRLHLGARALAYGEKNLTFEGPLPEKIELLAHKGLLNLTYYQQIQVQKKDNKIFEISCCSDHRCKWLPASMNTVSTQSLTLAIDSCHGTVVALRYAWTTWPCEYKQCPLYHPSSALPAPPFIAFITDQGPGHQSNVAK
UniProt Q9H299: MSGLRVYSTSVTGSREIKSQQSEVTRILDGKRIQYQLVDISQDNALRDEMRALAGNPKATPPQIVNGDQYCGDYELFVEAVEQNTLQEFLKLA

[2] = compound: C/C(=N\NC(=O)C1=CC(=CC=C1)S(=O)(=O)N2CCOCC2)/C3=C(C=CC(=C3)Cl)O
Procedure, shortened: as §1

[3] = compound: C1=CC(=C(C=C1Cl)C2=NC3=NC=CN=C3C(=N2)NC4=CC=NC=C4)F
Procedure, shortened: as §1

[4] = compound: C1=CC(=CC=C1C2=NC3=C(N2)C=C(C=C3)C(=O)N)OC4=CC=C(C=C4)Cl
Procedure, shortened: as §1

[5] = compound: C1=CC2=C(C=CC(=C2)/C=C\3/C(=O)NC(=NCC4=CC=CS4)S3)N=C1
Procedure, shortened: as §1

[6] = compound: C1=CC2=NC=CN=C2C=C1/C=C/3\C(=O)NC(=O)S3
Procedure, shortened: as §1

[7] = compound: C1=CC=C(C=C1)C2=NC(=C(N2)C3=CC=NC=C3)C4=CC(=C(C=C4)Cl)O
Procedure, shortened: as §1

[8] = compound: C1=CC=C2C(=C1)C3=NNC4=CC=CC(=C43)C2=O
Procedure, shortened: as §1

[9] = compound: C1CCN(C1)C(=O)NC2=CC=CC(=C2)NC3=NC=C(C(=N3)NCCC4=CN=CN4)Br
Procedure, shortened: as §1

[10] = compound: C1CN(CCC1(CC2=CC=C(C=C2)Cl)N)C3=NC=NC4=C3C=CN4
Procedure, shortened: as §1

[11] = compound: C1COCCN1CCN2C3=CC=CC=C3N=C2NC(=O)C4=CC(=CC=C4)[N+](=O)[O-] [IRAK-1-4 Inhibitor I]
Procedure, shortened: as §1

[12] = compound: C=CC(=O)N1CCC[C@@H](n2nc(-c3ccc(Oc4ccccc4)cc3)c3c(N)ncnc32)C1 [ibrutinib]
Procedure, shortened: as §1

[13] = compound: CC(=O)c1cnc2ccc(-c3cc(Cl)c(O)c(Cl)c3)nc2c1N[C@H]1CC[C@H](CN(C)C)CC1
Procedure, shortened: as §1

[14] = compound: CC(C)(C)Cn1c(N)nc2ccc(-c3[nH]c(C(C)(C)C)nc3-c3ccc(F)cc3)nc21 [ralimetinib]
Procedure, shortened: as §1

[15] = compound: CC(C)(O)CC(=O)NCCn1ccc2ncnc(Nc3ccc(Oc4cccc(C(F)(F)F)c4)c(Cl)c3)c21
Procedure, shortened: as §1

[16] = compound: CC(C)C1=C2N=C(C=C(N2N=C1)NCC3=CC=CC=C3)NCCCCCCN
Procedure, shortened: as §1

[17] = compound: CC(C)C[C@@H](C=O)NC(=O)[C@H](CC(C)C)NC(=O)[C@H](CC(C)C)NC(=O)OCc1ccccc1
Procedure, shortened: as §1

[18] = compound: CC(C)N(C[C@H]1O[C@@H](n2cnc3c(N)ncnc32)[C@H](O)[C@@H]1O)[C@H]1C[C@@H](CCc2nc3cc(C(C)(C)C)ccc3[nH]2)C1 [pinometostat]
Procedure, shortened: as §1

[19] = compound: CC1=C(C(CC(=O)N1)C2=CC=C(C=C2)C(F)(F)F)C(=O)NC3=C(C=C4C(=C3)C=NN4)F
Procedure, shortened: as §1

[20] = compound: CC1=C(C2=C(C=C1)C(=O)C3=CC=CC=C3N2CCCN)C
Procedure, shortened: as §1

Measured: log2 fold change

SF3A1 (UniProt Q15459)
inactive: [1] -0.002 | [2] 0.008 | [3] -0.034 | [4] -0.001 | [5] 0.011 | [6] 0.051 | [7] 0.033 | [8] -0.052 | [9] -0.023 | [10] -0.052 | [11] -0.018 | [12] 0.004 | [13] 0.033 | [14] 0.046 | [15] -0.02 | [16] 0.082 | [17] -0.018 | [18] -0.001 | [19] 0.011 | [20] 0.002

SF3A2 (UniProt Q15428)
inactive: [1] -0.014 | [2] 0.073 | [3] -0.055 | [4] -0.005 | [5] -0.022 | [6] 0.063 | [7] -0.016 | [8] -0.117 | [9] -0.062 | [10] -0.049 | [11] -0.067 | [12] -0.055 | [13] -0.014 | [14] 0.005 | [15] 0.038 | [16] 0.044 | [17] -0.065 | [18] -0.027 | [19] -0.024 | [20] 0.031

SERPINF2 (UniProt P08697)
inactive: [1] -0.303 | [2] -0.135 | [3] 0.109 | [4] 0.185 | [5] 0.17 | [6] -0.004 | [7] -0.205 | [8] -0.05 | [9] 0.153 | [10] 0.337 | [11] 0.082 | [12] 0.208 | [13] 0.077 | [14] -0.021 | [15] 0.118 | [16] 0.1 | [17] 0.155 | [18] -0.107 | [19] 0.062 | [20] -0.129

SEMA4B (UniProt Q9NPR2)
inactive: [1] 0.101 | [2] -0.061 | [3] -0.049 | [4] 0.106 | [5] 0.164 | [6] 0.073 | [7] -0.188 | [8] -0.138 | [9] 0.168 | [10] 0.226 | [11] -0.011 | [12] 0.013 | [13] 0.085 | [14] 0.169 | [15] -0.067 | [16] 0.074 | [17] 0.003 | [18] 0.068 | [19] -0.056 | [20] -0.106

SEPTIN11 isoform 2 (UniProt Q9NVA2)
inactive: [1] 0.036 | [2] -0.028 | [3] 0.017 | [4] 0.008 | [5] -0.02 | [6] -0.001 | [7] -0.035 | [8] 0.011 | [9] -0.018 | [10] 0.038 | [11] 0.043 | [12] 0.018 | [13] -0.008 | [14] -0.046 | [15] 0.01 | [16] 0.088 | [17] 0.006 | [18] -0.044 | [19] 0.015 | [20] -0.005

Random excerpt: two records from the list
SERPINF2 (UniProt P08697)
inactive: [1] -0.303 | [2] -0.135 | [3] 0.109 | [4] 0.185 | [5] 0.17 | [6] -0.004 | [7] -0.205 | [8] -0.05 | [9] 0.153 | [10] 0.337 | [11] 0.082 | [12] 0.208 | [13] 0.077 | [14] -0.021 | [15] 0.118 | [16] 0.1 | [17] 0.155 | [18] -0.107 | [19] 0.062 | [20] -0.129

SF3A1 (UniProt Q15459)
inactive: [1] -0.002 | [2] 0.008 | [3] -0.034 | [4] -0.001 | [5] 0.011 | [6] 0.051 | [7] 0.033 | [8] -0.052 | [9] -0.023 | [10] -0.052 | [11] -0.018 | [12] 0.004 | [13] 0.033 | [14] 0.046 | [15] -0.02 | [16] 0.082 | [17] -0.018 | [18] -0.001 | [19] 0.011 | [20] 0.002

(continued)

SF1 isoform 5 (UniProt Q15637)
inactive: [1] 0.043 | [2] -0.006 | [3] 0.02 | [4] -0.002 | [5] -0.099 | [6] -0.012 | [7] 0.014 | [8] 0.026 | [9] -0.03 | [10] 0.062 | [11] 0.039 | [12] 0.023 | [13] 0.028 | [14] -0.034 | [15] 0.007 | [16] 0.019 | [17] 0.01 | [18] -0.031 | [19] 0.01 | [20] 0.016

SEMA4C (UniProt Q9C0C4)
inactive: [1] 0.017 | [2] 0.014 | [3] 0.014 | [4] 0.018 | [5] -0.026 | [6] 0.061 | [7] -0.107 | [8] -0.089 | [9] -0.056 | [10] 0.024 | [11] 0.037 | [12] 0.006 | [13] -0.089 | [14] 0.025 | [15] -0.012 | [16] -0.001 | [17] 0.077 | [18] 0.038 | [19] 0.047 | [20] -0.021

SEL1L (UniProt Q9UBV2)
inactive: [1] -0.021 | [2] 0.027 | [3] -0.044 | [4] 0.024 | [5] 0.041 | [6] 0.096 | [7] 0.028 | [8] -0.03 | [9] 0.019 | [10] 0.025 | [11] -0.032 | [12] -0.111 | [13] 0 | [14] 0.006 | [15] -0.025 | [16] -0.074 | [17] 0.019 | [18] -0.012 | [19] -0.006 | [20] -0.035

SIPA1 (UniProt Q96FS4)
inactive: [1] 0.053 | [2] -0.005 | [3] 0 | [4] -0.017 | [5] -0.052 | [6] -0.005 | [7] 0 | [8] 0.005 | [9] -0.101 | [10] -0.055 | [11] -0.041 | [12] -0.024 | [13] -0.097 | [14] 0.042 | [15] -0.015 | [16] 0.083 | [17] 0.047 | [18] -0.007 | [19] 0.067 | [20] 0.031

SHKBP1 (UniProt Q8TBC3)
inactive: [1] 0.002 | [2] 0.044 | [3] 0.009 | [4] 0.027 | [5] 0.046 | [6] -0.022 | [7] 0.01 | [8] -0.035 | [9] 0.023 | [10] 0.018 | [11] 0.004 | [12] 0.068 | [13] -0.022 | [14] -0.074 | [15] -0.034 | [16] 0.139 | [17] 0.206 | [18] 0 | [19] 0.019 | [20] 0.023

SGMS1 (UniProt Q86VZ5)
inactive: [1] 0.005 | [2] 0.06 | [3] 0.003 | [4] 0.043 | [5] -0.031 | [6] 0.014 | [7] 0.058 | [8] -0.045 | [9] -0.037 | [10] 0.049 | [11] 0.017 | [12] 0.026 | [13] 0.018 | [14] 0 | [15] -0.004 | [16] -0.064 | [17] -0.03 | [18] -0.035 | [19] -0.016 | [20] -0.017

SF3A3 (UniProt Q12874)
inactive: [1] -0.014 | [2] 0.077 | [3] -0.072 | [4] -0.056 | [5] 0.073 | [6] 0.028 | [7] 0.002 | [8] -0.027 | [9] -0.057 | [10] 0.017 | [11] -0.079 | [12] -0.1 | [13] 0.007 | [14] 0.018 | [15] -0.013 | [16] 0.067 | [17] 0.081 | [18] 0.003 | [19] -0.066 | [20] -0.006

SF3B2 (UniProt Q13435)
inactive: [1] 0.081 | [2] -0.015 | [3] -0.155 | [4] -0.024 | [5] -0.041 | [6] 0.035 | [7] -0.05 | [8] -0.002 | [9] -0.002 | [10] -0.097 | [11] -0.101 | [12] -0.032 | [13] -0.035 | [14] 0.062 | [15] 0.024 | [16] -0.039 | [17] 0.054 | [18] 0.075 | [19] 0.037 | [20] -0.066

SERBP1 (UniProt Q8NC51)
inactive: [1] -0.04 | [2] -0.101 | [3] -0.231 | [4] -0.004 | [5] 0.036 | [6] 0.011 | [7] -0.083 | [8] -0.005 | [9] 0.051 | [10] -0.03 | [11] -0.039 | [12] 0.019 | [13] 0.038 | [14] 0.224 | [15] 0.075 | [16] 0.085 | [17] 0.23 | [18] 0.122 | [19] 0.054 | [20] 0.233

SIAE (UniProt Q9HAT2)
inactive: [1] 0.134 | [2] -0.051 | [3] 0.052 | [4] -0.125 | [5] 0.046 | [6] 0.078 | [7] -0.247 | [8] 0.004 | [9] 0.103 | [10] 0.003 | [11] -0.012 | [12] -0.075 | [13] -0.024 | [14] -0.282 | [15] -0.174 | [16] 0.007 | [17] 0.1 | [18] -0.077 | [19] 0.086 | [20] 0.013

SH3BGRL3 (UniProt Q9H299)
inactive: [1] -0.012 | [2] 0.037 | [3] 0.089 | [4] 0.02 | [5] 0.057 | [6] 0.015 | [7] -0.031 | [8] -0.022 | [9] -0.045 | [10] 0.021 | [11] 0.05 | [12] -0.006 | [13] 0.006 | [14] 0.043 | [15] -0.006 | [16] 0.028 | [17] 0.041 | [18] 0.002 | [19] -0.019 | [20] 0.058

— the supplement of paper PMC10849652
